Data on five sequences can be found in patent publication US20250388907.

Chains of the proteins cited; added tags and fusions are not shown. Residues count along the entry.
UniProt P10721, 26-976: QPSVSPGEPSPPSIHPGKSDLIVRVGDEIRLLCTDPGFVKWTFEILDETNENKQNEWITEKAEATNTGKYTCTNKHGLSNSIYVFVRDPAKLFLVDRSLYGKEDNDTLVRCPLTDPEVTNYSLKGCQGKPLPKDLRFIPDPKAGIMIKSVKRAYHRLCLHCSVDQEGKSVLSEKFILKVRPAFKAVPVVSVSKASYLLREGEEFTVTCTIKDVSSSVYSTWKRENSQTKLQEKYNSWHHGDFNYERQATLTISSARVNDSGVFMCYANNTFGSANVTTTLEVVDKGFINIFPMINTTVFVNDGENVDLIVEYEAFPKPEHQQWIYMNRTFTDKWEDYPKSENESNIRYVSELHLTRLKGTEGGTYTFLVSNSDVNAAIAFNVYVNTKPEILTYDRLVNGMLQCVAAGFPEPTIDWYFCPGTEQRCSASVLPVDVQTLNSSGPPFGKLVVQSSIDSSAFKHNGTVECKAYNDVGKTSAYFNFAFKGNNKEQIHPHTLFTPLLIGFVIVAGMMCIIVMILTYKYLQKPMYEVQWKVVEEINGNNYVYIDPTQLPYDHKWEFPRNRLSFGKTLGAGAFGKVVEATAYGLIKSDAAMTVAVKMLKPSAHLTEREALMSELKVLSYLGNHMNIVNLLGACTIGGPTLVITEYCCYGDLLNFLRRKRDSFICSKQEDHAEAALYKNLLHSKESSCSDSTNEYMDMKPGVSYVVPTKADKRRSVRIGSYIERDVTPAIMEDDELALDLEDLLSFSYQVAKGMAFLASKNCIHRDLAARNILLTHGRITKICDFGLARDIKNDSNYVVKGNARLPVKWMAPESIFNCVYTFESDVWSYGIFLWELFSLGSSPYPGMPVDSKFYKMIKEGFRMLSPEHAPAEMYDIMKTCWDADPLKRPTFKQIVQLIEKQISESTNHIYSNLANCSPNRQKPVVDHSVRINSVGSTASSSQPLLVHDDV
UniProt P26951, 19-378: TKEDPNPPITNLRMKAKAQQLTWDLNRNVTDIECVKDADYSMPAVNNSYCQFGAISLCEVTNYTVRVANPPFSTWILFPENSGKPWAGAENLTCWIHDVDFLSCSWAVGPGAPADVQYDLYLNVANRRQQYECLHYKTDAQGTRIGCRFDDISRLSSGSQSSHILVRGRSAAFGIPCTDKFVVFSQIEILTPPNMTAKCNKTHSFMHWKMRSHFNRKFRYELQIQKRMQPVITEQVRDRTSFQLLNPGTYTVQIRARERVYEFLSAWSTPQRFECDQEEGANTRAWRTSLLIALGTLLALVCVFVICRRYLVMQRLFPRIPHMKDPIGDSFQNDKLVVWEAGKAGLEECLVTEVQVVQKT

Results from cells or extracts need not show a direct contact. No signal at the amounts used counts as a negative.

The target of data set [1] is CD117 (c-KIT) on AML cells (Homo sapiens) (UniProt P10721). In words: flow cytometry. The settings on record: protein on the cell surface, protein details: endogenous, KASUMI-1 and HEL92.1.7 cells, label: 5' FAM (flow cytometry), single-stranded DNA. On the technique in general: In flow cytometry, cells or beads pass a laser one at a time.
Data set [2] deals with CD123 (IL3RA) on AML cells (Homo sapiens) (UniProt P26951). In words: flow cytometry. To be noted: protein on the cell surface, protein details: endogenous, HL-60 and KASUMI-1 cells, label: 5' FAM (flow cytometry), single-stranded DNA.
Setting [3] is: positive on KASUMI-1 and HEL92.1.7, negative on CD117- HL60 and MM1S.
Where [4] appears, read: no binding to HL60 (CD117- CD123+).
Setting [5] is: no binding to HEL92.1.7 (CD117+ CD123-).
[6] abbreviates: positive on HL60, negative on HEL92.1.7 and MM1S.

Regarding “GAGGCATACCAGCTTATTCAAGGGGCCGGGGCAAGGGGGGGGTACCGTGGTAGGACATAGTAAGTGCAATCTGCGAA [#1]”, the binding result is “binds” in data set [1] (setting [3]) and “no binding” in data set [2] (setting [4]).
For “ATCCAGAGTGACGCAGCACCGCCCATGTCGAATAGGTGCCACGTAGGGACTTGGACACGGTGGCTTAGT [ABWT050902]” the same measures were “binds” and “no binding”.
As for “TGCGTGTGTACTGTGTCTGGTCCCGTAGCTACTAGCGAACTCCCTGCCTCTTAGGGATTTGGGCGG [CY30]”, the binding result in data set [1] (setting [5]) is on record as “no binding”; in data set [2] (setting [6]) it was “binds”.
“TGCGTGTGTAGTGTGTCTGGGCTACATCGATGAGCTGCCTAGGGTCCCTCTTAGGGATTTGGGCGGG [ZW25]”: the binding result in data set [1] (setting [5]) is given as “no binding”; in data set [2] (setting [6]) it was “binds”.
For “ATCCAGAGTGACGCAGCACGAGCCTTGTGTCGTTCGGAGTGCTGGTCCACGACTACTATTGGACACGGTGGCTTAGT [ABWT050904]”, the binding result is recorded as “binds” in data set [1] (setting [3]) and “no binding” in data set [2] (setting [4]).
